Measurements reported in PubChem BioAssay AID1224826 (NIAID, 2016).
The deposit covers about 17,000 reagents; this is a part drawn at random. Of all reagents, about 1,110 (6.6%) were called active. 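Active means lowered or raised reporter signal; replicate intensities are raw and not normalised per plate.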 The numbers tell different reagents against one gene apart.

- Screen: 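Genes that change LPS-induced Tnf promoter activity in mouse macrophages when knocked down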 (primary screen)
- Cell system: RAW264.7 G9 macrophages from mouse bearing reporters for p65 (GFP) and the Tnf promoter (mCherry)
- Reagents: siRNA pool against mouse genes, 100 nM
- Duration: 16 h of LPS stimulation, after 2 days of siRNA transfection
- Treatment: bacterial lipopolysaccharide (Salmonella minnesota R595), 10 ng/ml
- Measured: 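Nuclear mCherry signal of the Tnf promoter reporter measured by imaging after background removal, scaled to each plate median and turned into robust z-scores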
- Direction: Tnf reporter robust z-score: higher = stronger Tnf promoter reporter signal after LPS; Tnf reporter intensity: higher = stronger Tnf promoter reporter signal
- Hit rule: 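a well counts as active at a score of -1.3 or below (Tlr4 knock-down control median) or above 3 (raised signal); controls and wells holding fewer than 50 cells are excluded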
- Calls: active = Tnf reporter clearly lowered or raised; inactive = no clear change in Tnf reporter

Gene	reagent	Tnf reporter robust z-score	fewer than 50 cells in well	Tnf reporter intensity, replicate 1	Tnf reporter intensity, replicate 2	Outcome
Card6 (caspase recruitment domain family, member 6)	1	-1.42	enough cells in well	69.2	93.1	active
Grb2 (growth factor receptor bound protein 2)	1	-1.51	enough cells in well	121	120	active
Edn2 (endothelin 2)	1	1.43	enough cells in well	324	205	inactive
Meltf (melanotransferrin)	1	0.41	enough cells in well	184	193	inactive
Slc6a18	1		fewer than 50 cells per well; well left out of calls	65.6	44.4	inactive
Smg6 (SMG6 nonsense mediated mRNA decay factor)	1	0.08	enough cells in well	204	143	inactive
Gucy1b2 (guanylate cyclase 1, soluble, beta 2)	1	-0.8	enough cells in well	174	123	inactive
Elf2 (E74-like factor 2)	1	-0.38	enough cells in well	178	225	inactive
Mrgpra2b (MAS-related GPR, member A2B)	1	2.75	enough cells in well	339	259	inactive
Stard5 (StAR related lipid transfer domain containing 5)	1	2.87	enough cells in well	209	87.7	inactive
Cyp2ab1 (cytochrome P450, family 2, subfamily ab, polypeptide 1)	1	-0.71	enough cells in well	149	130	inactive
Fam174a (family with sequence similarity 174, member A)	1	0.31	enough cells in well	170	40.1	inactive
Ddx11 (DEAD/H box helicase 11)	1	-0.15	enough cells in well	172	126	inactive
Nptn (neuroplastin)	1	1.24	enough cells in well	224	139	inactive
Dcun1d3 (defective in cullin neddylation 1 domain containing 3)	1	-1	enough cells in well	146	127	inactive
Ankrd46 (ankyrin repeat domain 46)	1	1.14	enough cells in well	303	123	inactive
Sowaha (sosondowah ankyrin repeat domain family member A)	1	-0.24	enough cells in well	158	140	inactive
Zfp809 (zinc finger protein 809)	1	-0.7	enough cells in well	173	140	inactive
Gabrg3 (gamma-aminobutyric acid type A receptor, subunit gamma 3)	1	0.26	enough cells in well	282	254	inactive
Gabrg3 (gamma-aminobutyric acid type A receptor, subunit gamma 3)	2	0.92	enough cells in well	266	175	inactive
Cdadc1 (cytidine and dCMP deaminase domain containing 1)	1		fewer than 50 cells per well; well left out of calls	170	131	inactive
Gpam (glycerol-3-phosphate acyltransferase, mitochondrial)	1	1.03	enough cells in well	316	231	inactive
Or4b1c (olfactory receptor family 4 subfamily B member 1C)	1	1.61	enough cells in well	293	176	inactive
Tac4 (tachykinin 4)	1	0.28	enough cells in well	128	81.6	inactive
Cpz (carboxypeptidase Z)	1	-0.34	enough cells in well	205	183	inactive
Trib1 (tribbles pseudokinase 1)	1		fewer than 50 cells per well; well left out of calls	144	103	inactive
Trim50 (tripartite motif-containing 50)	1	1.82	enough cells in well	196	140	inactive
Or4d11 (olfactory receptor family 4 subfamily D member 11)	1	2.27	enough cells in well	316	215	inactive
Zfp119b (zinc finger protein 119b)	1	0.58	enough cells in well	243	252	inactive
Taco1	1		fewer than 50 cells per well; well left out of calls	274	149	inactive
Slc25a13	1	0.73	enough cells in well	264	184	inactive
Slco1a4	1	-0.22	enough cells in well	204	132	inactive
Prmt5 (protein arginine N-methyltransferase 5)	1	-1.02	enough cells in well	186	139	inactive
Prdm2 (PR domain containing 2, with ZNF domain)	1		fewer than 50 cells per well; well left out of calls	84.2	103	inactive
Chfr (checkpoint with forkhead and ring finger domains)	1	0.98	enough cells in well	318	286	inactive
Pramel52-ps (PRAME like 52, pseudogene)	1	-0.14	enough cells in well	140	171	inactive
Adtrp (androgen dependent TFPI regulating protein)	1		fewer than 50 cells per well; well left out of calls	130	118	inactive
Ola1 (Obg-like ATPase 1)	1	0.25	enough cells in well	201	67.4	inactive
Or5k15 (olfactory receptor family 5 subfamily J member 15)	1	0.68	enough cells in well	225	135	inactive
Pabpc2 (poly(A) binding protein, cytoplasmic 2)	1	1.59	enough cells in well	229	201	inactive
